Measured values reported in paper PMC11612488.
These are yes or no findings as the source states them, for the method shown. In cells and extracts the contact can be indirect. Some entries that bind do so weakly or less than the wild type. For some of these results: Sequences can lack the tags named with a protein. Values belong to the binder of their own block, whether it stands above or below them.

How the values were obtained:
[1] = target: T1, 2-Flag-tagged BBX (bobby sox homolog) (not stated (human or mouse cDNA cloned)) (UniProt Q8VBW5); assay: co-IP; MC3T3-E1 cells transfected with 2-Flag-tagged BBX and VDR plasmids, with or without 1,25(OH)2D3; RIPA lysates (600 ug) precleared, anti-Flag or anti-VDR at 4 °C overnight, Protein-A/G agarose 2 h; immunoblot with the corresponding antibodies
T1 sequence: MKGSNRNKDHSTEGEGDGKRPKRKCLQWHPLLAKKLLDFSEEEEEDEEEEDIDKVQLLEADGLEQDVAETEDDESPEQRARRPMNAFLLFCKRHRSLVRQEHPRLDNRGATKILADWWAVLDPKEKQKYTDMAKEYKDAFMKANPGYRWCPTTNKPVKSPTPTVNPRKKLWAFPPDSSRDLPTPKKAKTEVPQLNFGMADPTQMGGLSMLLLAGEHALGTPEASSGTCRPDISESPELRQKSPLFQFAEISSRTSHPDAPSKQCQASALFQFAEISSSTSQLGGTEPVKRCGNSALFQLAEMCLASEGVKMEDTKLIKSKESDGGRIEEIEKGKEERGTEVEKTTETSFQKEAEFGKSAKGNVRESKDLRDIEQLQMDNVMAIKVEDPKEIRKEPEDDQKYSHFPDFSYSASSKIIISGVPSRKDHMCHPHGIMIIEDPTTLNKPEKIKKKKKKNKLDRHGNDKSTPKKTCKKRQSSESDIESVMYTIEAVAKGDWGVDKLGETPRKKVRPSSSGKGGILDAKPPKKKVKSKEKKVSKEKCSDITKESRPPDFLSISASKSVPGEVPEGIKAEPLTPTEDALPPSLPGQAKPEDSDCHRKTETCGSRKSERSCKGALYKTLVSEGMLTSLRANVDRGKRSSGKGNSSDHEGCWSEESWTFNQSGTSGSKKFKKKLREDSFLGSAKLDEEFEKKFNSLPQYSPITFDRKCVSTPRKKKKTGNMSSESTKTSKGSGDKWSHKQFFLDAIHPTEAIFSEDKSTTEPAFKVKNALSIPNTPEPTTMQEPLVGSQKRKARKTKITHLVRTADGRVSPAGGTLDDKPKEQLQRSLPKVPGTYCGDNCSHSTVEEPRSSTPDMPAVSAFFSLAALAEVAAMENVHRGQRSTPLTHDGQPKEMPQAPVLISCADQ

[2] = target: T2, endogenous BBX (bobby sox homolog) (mouse (endogenous in MC3T3-E1)) (UniProt Q8VBW5); assay: co-IP; endogenous proteins; MC3T3-E1 cells treated with or without 1,25(OH)2D3 (20 nM) for 30 min; immunoprecipitated with anti-BBX or anti-VDR antibodies; immunoblot
T2 sequence: T1 sequence

[3] = target: T3, 1,25(OH)2D3 receptor (VDR), overexpressed (not stated (human or mouse cDNA cloned)) (UniProt P48281); assay: co-IP; MC3T3-E1 cells transfected with 2-Flag-tagged BBX and VDR plasmids, with or without 1,25(OH)2D3; RIPA lysates (600 ug) precleared, anti-Flag or anti-VDR at 4 °C overnight, Protein-A/G agarose 2 h; immunoblot with the corresponding antibodies
T3 sequence: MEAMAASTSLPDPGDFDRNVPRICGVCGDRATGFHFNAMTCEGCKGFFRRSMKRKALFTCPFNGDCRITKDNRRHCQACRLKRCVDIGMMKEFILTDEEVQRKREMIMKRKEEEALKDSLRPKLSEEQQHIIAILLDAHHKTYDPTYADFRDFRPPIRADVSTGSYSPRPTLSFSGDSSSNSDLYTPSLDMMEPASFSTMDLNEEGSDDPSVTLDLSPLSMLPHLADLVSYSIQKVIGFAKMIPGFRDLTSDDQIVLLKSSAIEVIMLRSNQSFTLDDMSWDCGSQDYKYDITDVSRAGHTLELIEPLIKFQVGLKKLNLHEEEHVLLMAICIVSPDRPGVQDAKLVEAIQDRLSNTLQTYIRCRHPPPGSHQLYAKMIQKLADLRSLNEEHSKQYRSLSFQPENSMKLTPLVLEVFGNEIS

- binding [1]: binds
- binding [2]: binds
B1: endogenous 1,25(OH)2D3 receptor (VDR) (receptor, UniProt P48281 1-422)
chain: T3 sequence

- binding [1]: binds
B2: 1,25(OH)2D3 receptor (VDR), overexpressed (receptor, UniProt P48281 1-422)
chain: T3 sequence

- binding [3]: binds
B3: 2-Flag-tagged BBX (bobby sox homolog) (protein, UniProt Q8VBW5 1-907)
chain: T1 sequence
